This note sets out measurements from the supplement of paper PMC10338343.

± gives the standard deviation. The entries are a selection whose mix differs from that of the whole data set. Many entries were measured with a wide error.

The test system of this assay is MILI (PIWIL2) piRISC loaded with Kctd7 piRNA (26 nt). Briefly: pre-steady-state target cleavage rate (min^-1); MIWI and MILI are mouse PIWI proteins and EfPiwi is from a freshwater sponge; tags in brackets are library labels; higher = faster piRNA-guided slicing of the target. The note with it: guide: Kctd7 piRNA 5'p-UGUUAAUCUCUCAGAGAAGGUGACAG; auxiliary factor: 500 nM mouse GTSF1. The procedure: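 Cleave-'n-Seq: a library of target RNAs (target site embedded in constant flanks, ACAGCATTCCGCGTTAGTGATATCCG... 5' flank; DNA-blocked outside the site) at 0.1 nM was incubated with 1 nM active mouse MILI or MIWI piRISC (synthetic 5'-monophosphorylated piRNA guide) with or without 500 nM mouse GTSF1 at 33 °C for 1 min to 16 h. Uncleaved targets were sequenced and normalised to non-target controls, and the pooled three trials were fitted to a burst-and-steady-state model to give the pre-steady-state cleavage rate (min^-1; k3 is constrained to at most 1e-4). Sequence is the target site only; target names encode pairing extent (gX:gY) and contiguous / 1-mismatch / 2-mismatch / bulge geometry. Fits with R² ≤ 0 are excluded.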
As for UAGUCUGUCACCUUCUGCUGAGAGAUUAACA, the “pre-steady-state target cleavage rate” value is 0.0816 ± 0.013.
With UAGUGACAGUCCUUCUCUCUGAGAUUAACA, the “pre-steady-state target cleavage rate” value came to 0.00157 ± 0.0058.
To UAGUCUCUCACCAUCUCUGAGAGAUUAACA belongs 0.0256 ± 0.0069.
To UAGUGACAGUGGUUCUUGAGAGAUUAACA belongs 0.000782 ± 0.0099.
Next, UAGUGACAGUGCAUCUCUGAGUGAUUAACA: 0.00148 ± 0.0042; UAGUGACAGUGGAAGAGUGAGAGAUUACCA: 0.000127 ± 0.047; UAGUGACACACCUACUCUGAGUGAUUAACA: 0.00121 ± 0.0075.
On to UAGUGACAGUGCUUCUCUGAGAGAUUUUGA, for which the “pre-steady-state target cleavage rate” value is 0.000119 ± 0.024.
For the sequence UAGUGACUCACCUUCUCUGAGAGAAAAAGA, the “pre-steady-state target cleavage rate” value was 0.00188 ± 0.0056.
In the case of UAGUGACAGUGCUUCUCUGAGAGUUUAAGA, the “pre-steady-state target cleavage rate” value was determined as 0.000194 ± 0.017.
Next, UAGUGACAGACCUUCUCUGAGACAUUAUCA: 0.000696 ± 0.013; UAGUGACUCACCUUCUCUGAGUGAUUUACA: 0.000532 ± 0.012.
On to UAGUGUGUCACCUUCUCUGAGAGAGUAACA, for which the “pre-steady-state target cleavage rate” value worked out at 0.287 ± 0.056.
To UAGUGACAGUCGAUCUCUGAGAGAUUAAGA belongs 0.00145 ± 0.004; to UAGUGACUCUGCUUCUCUGAGAGAUUUUGA, 0.00212 ± 0.004; to “UAGUGACAGUGGAAGUCUGAGAGAUUAACG [g2:g15:cont:t1G]”, 0.0021 ± 0.0021.
Next, UAGUGACAGACCUUCUCUGACAGAUUAAGA: 0.000119 ± 0.047; UAGUGACAGACCUUCUCUGACGAGAUUAACA: 0.00291 ± 0.0043.
Next, UAGUGACAGUGGAAGUUCUGAGAGAUUAACA: 0.000435 ± 0.008; UAGUGUGUCACCUUCUCUGAGAAAUUAACA: 0.112 ± 0.019; UAGUGACAGUCCUUCUGCUGAGAGAUUAACA: 0.000632 ± 0.01.
On to UAGUGACAGACCUUCUCUGAGUCAUUAUGA, for which the “pre-steady-state target cleavage rate” value was determined as 0.000217 ± 0.023.
Next, UAGUGACAGUGCUACUCUGAGAGAUUAAGA: 0.00109 ± 0.0053; UAGUGACACACCUUCUCUGAGUCAUUAACA: 0.00177 ± 0.006.
Next, UAGUGACAGUGGAACUUCUGAGAGAUUAACA: 0.000348 ± 0.013; UAGUGACAGUGCUUCUGUCAGAGAUUAACA: 0.00142 ± 0.008.
UAGUCAUGUCACCUUCUCUGAGAGAUUAACA: the “pre-steady-state target cleavage rate” value is 0.238 ± 0.023.
UAGUGACACACCUUCUCUGAGUGUUUAACA: the “pre-steady-state target cleavage rate” value was found to be 0.000944 ± 0.0098.
Next, UAGUCUGACACCUUCUCUGAGAGAUUUUGA: 0.00148 ± 0.0052; “UAGUGACAGACCUUCUCUGACUCUAAUUGA [g11:g21:cont:t1A]”: 0.000149 ± 0.029; “UAGUGACAGUGGAAGAGACUCAGAUUAACC [g2:g9:cont:t1C]”: 0.000412 ± 0.013.
As for UAGUGACAGUGCUUCACUGAGAGUUUAACA, the “pre-steady-state target cleavage rate” value is 0.0013 ± 0.0056.
To UAGUGACUCACCUUCUCUCUGAGAUUUUGA belongs 0.00108 ± 0.0094; to UAGUCUGUCACCAUCACUGAGAGAUUAACA, 0.11 ± 0.0083; to UAGUGACAGUGGAAGACUGAGUCAUUAACA, 0.000475 ± 0.0097.
